Reference: the supplement of paper PMC12067093, “Discovery and optimisation of a covalent ligand for TRIM25 and its application to targeted protein ubiquitination” (Chemical Science, 2025)
Some of the results follow.

Protein sequences, listed by entry. Tags and fused reporters are not part of them. Lines headed by an entry give the natural chain unless they say otherwise; changes in a name come on top.
UniProt Q6P587: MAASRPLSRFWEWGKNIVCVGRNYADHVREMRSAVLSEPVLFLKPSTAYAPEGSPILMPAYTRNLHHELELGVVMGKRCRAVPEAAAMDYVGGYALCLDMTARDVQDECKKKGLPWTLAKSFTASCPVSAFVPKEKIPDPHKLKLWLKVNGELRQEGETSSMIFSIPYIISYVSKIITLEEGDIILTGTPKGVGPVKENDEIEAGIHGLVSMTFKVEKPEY
UniProt Q96EK7: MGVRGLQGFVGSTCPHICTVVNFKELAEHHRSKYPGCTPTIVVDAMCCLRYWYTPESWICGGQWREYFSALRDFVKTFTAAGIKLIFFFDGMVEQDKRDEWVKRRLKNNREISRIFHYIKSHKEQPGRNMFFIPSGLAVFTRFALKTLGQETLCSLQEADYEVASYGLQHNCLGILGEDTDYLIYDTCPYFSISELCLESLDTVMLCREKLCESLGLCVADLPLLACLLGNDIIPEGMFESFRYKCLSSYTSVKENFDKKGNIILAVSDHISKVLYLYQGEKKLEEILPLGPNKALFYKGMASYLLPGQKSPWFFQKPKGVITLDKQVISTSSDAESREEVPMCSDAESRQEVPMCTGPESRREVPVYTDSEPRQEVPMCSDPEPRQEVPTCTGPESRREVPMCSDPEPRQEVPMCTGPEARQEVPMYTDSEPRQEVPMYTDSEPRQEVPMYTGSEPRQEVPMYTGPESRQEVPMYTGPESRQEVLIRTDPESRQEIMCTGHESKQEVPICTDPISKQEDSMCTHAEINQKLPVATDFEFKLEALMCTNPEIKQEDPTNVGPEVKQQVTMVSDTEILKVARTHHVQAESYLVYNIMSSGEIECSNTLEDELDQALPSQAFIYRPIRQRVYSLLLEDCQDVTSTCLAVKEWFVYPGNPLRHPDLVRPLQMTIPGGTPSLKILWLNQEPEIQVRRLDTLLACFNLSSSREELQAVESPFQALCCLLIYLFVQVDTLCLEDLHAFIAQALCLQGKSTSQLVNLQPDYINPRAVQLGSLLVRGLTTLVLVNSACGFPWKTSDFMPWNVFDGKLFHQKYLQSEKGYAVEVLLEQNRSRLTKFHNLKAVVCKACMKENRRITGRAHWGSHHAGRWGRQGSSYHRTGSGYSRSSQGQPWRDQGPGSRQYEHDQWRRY
UniProt P10768: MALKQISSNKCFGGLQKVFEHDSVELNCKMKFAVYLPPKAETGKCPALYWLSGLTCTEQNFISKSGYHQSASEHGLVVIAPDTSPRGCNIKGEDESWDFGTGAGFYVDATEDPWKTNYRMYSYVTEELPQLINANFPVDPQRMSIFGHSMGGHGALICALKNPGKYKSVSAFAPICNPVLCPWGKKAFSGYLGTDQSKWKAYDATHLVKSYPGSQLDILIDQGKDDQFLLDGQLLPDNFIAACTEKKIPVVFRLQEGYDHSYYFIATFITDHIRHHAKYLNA
UniProt Q96KP1: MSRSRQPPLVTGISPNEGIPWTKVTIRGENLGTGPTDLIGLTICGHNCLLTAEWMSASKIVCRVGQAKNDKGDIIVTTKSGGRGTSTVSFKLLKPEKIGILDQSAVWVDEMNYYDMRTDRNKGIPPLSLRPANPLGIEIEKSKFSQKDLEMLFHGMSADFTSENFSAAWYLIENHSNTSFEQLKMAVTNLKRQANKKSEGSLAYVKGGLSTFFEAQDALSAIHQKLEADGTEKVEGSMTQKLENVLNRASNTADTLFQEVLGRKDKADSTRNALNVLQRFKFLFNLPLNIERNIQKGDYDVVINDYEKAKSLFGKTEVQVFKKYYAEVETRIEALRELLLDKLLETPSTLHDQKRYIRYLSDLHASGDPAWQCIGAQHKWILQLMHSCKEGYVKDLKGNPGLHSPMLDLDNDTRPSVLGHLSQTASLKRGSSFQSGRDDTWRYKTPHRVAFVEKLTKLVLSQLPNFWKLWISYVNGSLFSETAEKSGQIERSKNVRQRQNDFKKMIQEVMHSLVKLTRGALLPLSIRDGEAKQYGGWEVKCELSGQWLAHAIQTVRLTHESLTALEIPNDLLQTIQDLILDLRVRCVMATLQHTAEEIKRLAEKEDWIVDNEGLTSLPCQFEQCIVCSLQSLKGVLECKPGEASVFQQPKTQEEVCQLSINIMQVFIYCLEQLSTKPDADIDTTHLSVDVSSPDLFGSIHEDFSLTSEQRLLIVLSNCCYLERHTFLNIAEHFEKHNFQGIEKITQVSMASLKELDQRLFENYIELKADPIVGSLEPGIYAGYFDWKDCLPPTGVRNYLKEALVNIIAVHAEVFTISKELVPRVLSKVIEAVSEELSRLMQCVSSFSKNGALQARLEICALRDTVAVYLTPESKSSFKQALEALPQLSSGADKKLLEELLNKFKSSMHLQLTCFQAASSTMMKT
UniProt Q56NI9: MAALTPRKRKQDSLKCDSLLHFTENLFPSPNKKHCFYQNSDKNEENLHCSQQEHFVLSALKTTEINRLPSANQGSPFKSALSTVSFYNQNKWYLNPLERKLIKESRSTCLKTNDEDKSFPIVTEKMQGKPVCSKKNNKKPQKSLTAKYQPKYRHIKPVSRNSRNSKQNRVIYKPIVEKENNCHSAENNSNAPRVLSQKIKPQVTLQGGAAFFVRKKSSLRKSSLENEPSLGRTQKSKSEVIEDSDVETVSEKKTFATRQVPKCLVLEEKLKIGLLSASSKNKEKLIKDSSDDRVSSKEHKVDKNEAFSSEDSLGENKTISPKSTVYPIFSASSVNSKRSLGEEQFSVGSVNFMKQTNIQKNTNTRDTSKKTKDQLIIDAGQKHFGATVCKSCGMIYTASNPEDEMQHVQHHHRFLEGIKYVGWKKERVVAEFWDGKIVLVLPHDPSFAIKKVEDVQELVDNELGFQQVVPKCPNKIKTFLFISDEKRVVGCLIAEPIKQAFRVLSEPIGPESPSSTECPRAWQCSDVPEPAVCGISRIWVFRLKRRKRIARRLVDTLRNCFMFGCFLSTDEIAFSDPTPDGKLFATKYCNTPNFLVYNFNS
UniProt P41212: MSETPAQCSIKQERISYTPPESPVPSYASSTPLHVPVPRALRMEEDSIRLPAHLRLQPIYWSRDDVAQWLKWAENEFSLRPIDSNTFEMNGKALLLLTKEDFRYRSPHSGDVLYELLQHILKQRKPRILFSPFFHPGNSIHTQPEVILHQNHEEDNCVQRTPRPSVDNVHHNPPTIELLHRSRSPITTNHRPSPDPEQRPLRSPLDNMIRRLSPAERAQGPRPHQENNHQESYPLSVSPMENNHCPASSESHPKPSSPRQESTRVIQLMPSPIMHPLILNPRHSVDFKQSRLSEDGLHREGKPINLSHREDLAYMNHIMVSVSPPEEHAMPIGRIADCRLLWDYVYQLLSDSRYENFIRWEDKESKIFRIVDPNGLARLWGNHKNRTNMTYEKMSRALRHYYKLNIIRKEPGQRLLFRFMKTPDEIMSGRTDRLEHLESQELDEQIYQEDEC
UniProt Q15024, whole entry, looked up: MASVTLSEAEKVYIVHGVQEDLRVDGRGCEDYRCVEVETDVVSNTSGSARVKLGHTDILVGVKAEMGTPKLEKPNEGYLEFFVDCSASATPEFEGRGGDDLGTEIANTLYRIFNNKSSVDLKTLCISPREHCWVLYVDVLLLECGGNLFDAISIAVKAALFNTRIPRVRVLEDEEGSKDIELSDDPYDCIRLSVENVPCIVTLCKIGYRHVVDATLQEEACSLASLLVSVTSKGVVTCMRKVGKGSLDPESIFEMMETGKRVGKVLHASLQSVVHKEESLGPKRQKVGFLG
UniProt Q9NZB2: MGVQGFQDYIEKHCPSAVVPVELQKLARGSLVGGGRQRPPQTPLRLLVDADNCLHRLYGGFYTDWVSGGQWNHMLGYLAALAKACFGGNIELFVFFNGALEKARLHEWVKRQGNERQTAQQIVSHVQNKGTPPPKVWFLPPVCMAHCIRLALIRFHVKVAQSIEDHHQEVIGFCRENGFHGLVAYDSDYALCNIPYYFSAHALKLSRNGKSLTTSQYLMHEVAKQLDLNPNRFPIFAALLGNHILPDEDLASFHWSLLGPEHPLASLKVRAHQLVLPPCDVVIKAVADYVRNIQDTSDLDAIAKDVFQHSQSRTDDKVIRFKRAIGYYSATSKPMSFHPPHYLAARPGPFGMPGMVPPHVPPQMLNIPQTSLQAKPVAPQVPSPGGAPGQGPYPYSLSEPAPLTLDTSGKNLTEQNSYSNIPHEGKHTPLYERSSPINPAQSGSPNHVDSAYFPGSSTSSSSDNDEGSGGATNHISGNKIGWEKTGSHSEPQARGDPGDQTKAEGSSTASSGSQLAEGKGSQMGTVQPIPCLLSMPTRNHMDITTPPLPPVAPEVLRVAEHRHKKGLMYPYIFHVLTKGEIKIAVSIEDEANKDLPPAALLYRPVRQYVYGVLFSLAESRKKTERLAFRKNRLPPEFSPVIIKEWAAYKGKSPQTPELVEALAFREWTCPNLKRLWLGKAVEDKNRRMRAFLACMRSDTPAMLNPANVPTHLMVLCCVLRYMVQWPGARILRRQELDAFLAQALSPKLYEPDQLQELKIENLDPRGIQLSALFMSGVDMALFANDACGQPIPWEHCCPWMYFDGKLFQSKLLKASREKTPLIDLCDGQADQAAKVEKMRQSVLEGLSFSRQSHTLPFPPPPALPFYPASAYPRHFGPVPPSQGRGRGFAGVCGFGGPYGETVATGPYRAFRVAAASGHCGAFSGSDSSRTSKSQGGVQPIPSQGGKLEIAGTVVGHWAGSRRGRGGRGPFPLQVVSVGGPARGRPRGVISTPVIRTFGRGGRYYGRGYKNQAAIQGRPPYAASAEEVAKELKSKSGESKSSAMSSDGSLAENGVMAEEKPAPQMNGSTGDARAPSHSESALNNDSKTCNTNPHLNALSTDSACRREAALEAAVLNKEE
UniProt Q06265, whole entry, looked up: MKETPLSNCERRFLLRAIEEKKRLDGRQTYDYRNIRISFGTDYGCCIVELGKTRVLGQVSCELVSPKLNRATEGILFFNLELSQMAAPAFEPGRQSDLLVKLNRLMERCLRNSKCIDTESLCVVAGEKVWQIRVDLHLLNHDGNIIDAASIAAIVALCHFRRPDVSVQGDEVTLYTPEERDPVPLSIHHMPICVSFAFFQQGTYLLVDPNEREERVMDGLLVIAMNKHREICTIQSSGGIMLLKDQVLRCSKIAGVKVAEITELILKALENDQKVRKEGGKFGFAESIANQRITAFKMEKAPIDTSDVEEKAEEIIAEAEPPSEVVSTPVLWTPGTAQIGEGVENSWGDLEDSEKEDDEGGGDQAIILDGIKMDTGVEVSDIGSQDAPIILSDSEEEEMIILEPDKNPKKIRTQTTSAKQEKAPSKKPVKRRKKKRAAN
UniProt O00471: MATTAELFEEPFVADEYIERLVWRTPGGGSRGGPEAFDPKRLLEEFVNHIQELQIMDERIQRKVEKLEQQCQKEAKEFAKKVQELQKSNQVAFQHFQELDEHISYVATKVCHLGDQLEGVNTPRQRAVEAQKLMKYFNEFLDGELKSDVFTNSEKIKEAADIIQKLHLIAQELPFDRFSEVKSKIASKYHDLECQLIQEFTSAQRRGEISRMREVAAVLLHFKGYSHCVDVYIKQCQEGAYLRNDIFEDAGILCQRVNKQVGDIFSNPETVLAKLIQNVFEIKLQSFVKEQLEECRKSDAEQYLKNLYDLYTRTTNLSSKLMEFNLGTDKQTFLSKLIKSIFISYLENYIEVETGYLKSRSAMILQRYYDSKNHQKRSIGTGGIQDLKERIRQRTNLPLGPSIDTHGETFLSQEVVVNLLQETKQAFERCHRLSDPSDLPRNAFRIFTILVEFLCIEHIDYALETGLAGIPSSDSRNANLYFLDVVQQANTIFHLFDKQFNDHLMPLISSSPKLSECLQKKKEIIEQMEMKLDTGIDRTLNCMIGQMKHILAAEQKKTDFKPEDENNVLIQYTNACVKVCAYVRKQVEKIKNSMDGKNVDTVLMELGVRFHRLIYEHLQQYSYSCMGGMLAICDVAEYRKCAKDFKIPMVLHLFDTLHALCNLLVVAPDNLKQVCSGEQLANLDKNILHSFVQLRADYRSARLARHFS
UniProt Q5RKV6, whole entry, looked up: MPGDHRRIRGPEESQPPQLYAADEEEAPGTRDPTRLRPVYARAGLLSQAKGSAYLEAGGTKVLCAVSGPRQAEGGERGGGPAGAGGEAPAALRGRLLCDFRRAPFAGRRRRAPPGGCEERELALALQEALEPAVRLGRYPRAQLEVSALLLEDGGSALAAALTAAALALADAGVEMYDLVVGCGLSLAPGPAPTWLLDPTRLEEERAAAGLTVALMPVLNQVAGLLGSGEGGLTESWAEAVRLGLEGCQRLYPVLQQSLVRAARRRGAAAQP
UniProt Q9Y624, whole entry, looked up, stated change not applied: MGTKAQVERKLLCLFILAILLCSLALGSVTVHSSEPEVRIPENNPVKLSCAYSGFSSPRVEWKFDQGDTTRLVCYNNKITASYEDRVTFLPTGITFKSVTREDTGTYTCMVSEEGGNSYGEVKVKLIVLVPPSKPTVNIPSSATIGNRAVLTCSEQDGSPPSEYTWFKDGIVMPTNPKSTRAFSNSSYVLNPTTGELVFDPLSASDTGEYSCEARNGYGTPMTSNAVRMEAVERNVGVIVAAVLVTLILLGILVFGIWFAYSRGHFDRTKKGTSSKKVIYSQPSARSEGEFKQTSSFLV

What follows are targets tested with CC1Cc2ccccc2N1C(=O)C1CCCN(C1)C(=O)CCl (mixture of isomers) [TRIM25 ligand 11 (diastereomer mixture)] (assay: probe-labelled cysteine peptide fold change vs DMSO (competition) (log2 fold change); higher = less target engagement (more negative = stronger competition)). Details: 50 µM; THP-1; incubation time: 4 h.
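Note: competitive chemoproteomic profiling in live THP-1 cells with an iodoacetamide desthiobiotin (IA-DTB) probe, comparing probe-labelled peptide intensities in compound-treated cells against DMSO-treated controls.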

First: FAHD1_Q6P587_112_DVQDECK (UniProt Q6P587)
Second: FAM120B_Q96EK7_356_QEVPMCTGPESR (UniProt Q96EK7)
The “probe-labelled cysteine peptide fold change” value of the first is higher: -0.0525 for the first, -0.365 for the second.

Going from ESD_P10768_11_CFGGLQK (UniProt P10768) to “EXOC2_Q96KP1_859_LEICALR (UniProt Q96KP1)”, the “probe-labelled cysteine peptide fold change” value rises from -0.0187 to -0.00412.

Going from “ESCO2_Q56NI9_182_ENNCHSAENNSNAPR (UniProt Q56NI9)” to “ETV6_P41212_8_SETPAQCSIK (UniProt P41212)”, the “probe-labelled cysteine peptide fold change” value falls from 0.124 to -0.18.

First: ERLIN1_O75477_310_IYFGSNIPNMFVDSSCALK (UniProt O75477)
Second: ESCO2_Q56NI9_263_CLVLEEK (UniProt Q56NI9)
The “probe-labelled cysteine peptide fold change” value of the first is lower: -0.23 for the first, -0.155 for the second.

Going from “ERLEC1_Q96DZ1_126_IESYWTYEVCHGK (UniProt Q96DZ1)” to “EXOSC2_Q13868_259_MMLYDTSILYCYEASLPHQIK (UniProt Q13868)”, the “probe-labelled cysteine peptide fold change” value falls from 0.197 to 0.0694.

First: EXOSC7_Q15024_85_PNEGYLEFFVDCSASATPEFEGR (UniProt Q15024)
Second: ERGIC3_Q9Y282_145_VEVTVFDPDSLDPDRCESCYGAEAEDIK (UniProt Q9Y282)
The “probe-labelled cysteine peptide fold change” value of the first is lower: 0.0488 for the first, 0.359 for the second.

Compared with “FAM120A_Q9NZB2_1103_TCNTNPHLNALSTDSACR (UniProt Q9NZB2)”, “ETFA_P13804_53_LGGEVSCLVAGTK (UniProt P13804)” is higher in “probe-labelled cysteine peptide fold change” value: -0.287 for the first, -0.00429 for the second.

Going from “FAF1_Q9UNN5_428_FLTMCNR (UniProt Q9UNN5)” to “EXOC6_Q8TAG9_561_KPHIGLTELVQIIINTTHLEQACK (UniProt Q8TAG9)”, the “probe-labelled cysteine peptide fold change” value rises from 0.0084 to 0.134.

Going from “EXOSC9_Q06265_232_HREICTIQSSGGIMLLK (UniProt Q06265)” to “EXOSC9_Q06265_45+46_ISFGTDYGCCIVELGK (UniProt Q06265)”, the “probe-labelled cysteine peptide fold change” value rises from -0.0657 to 0.172.

Compared with “ESCO1_Q5FWF5_160_EQCSSTQSK (UniProt Q5FWF5)”, “FAM120B_Q96EK7_547_LEALMCTNPEIK (UniProt Q96EK7)” is lower in “probe-labelled cysteine peptide fold change” value: -0.00324 for the first, -0.0523 for the second.

Compared with “EXOC5_O00471_254_NDIFEDAGILCQR (UniProt O00471)”, “EXOSC6_Q5RKV6_117_APPGGCEERELALALQEALEPAVR (UniProt Q5RKV6)” is lower in “probe-labelled cysteine peptide fold change” value: 0.0639 for the first, -0.408 for the second.

Compared with “FAM120B_Q96EK7_380_QEVPMCSDPEPR (UniProt Q96EK7)”, “EXT2_Q93063_657_CPECTAIDGLSLDQTHMVER (UniProt Q93063)” is higher in “probe-labelled cysteine peptide fold change” value: -0.329 for the first, 0.185 for the second.

Going from “F11R_Q9Y624_50_LSCAYSGFSSPR (UniProt Q9Y624)” to “FAM120A_Q9NZB2_53_LLVDADNCLHR (UniProt Q9NZB2)”, the “probe-labelled cysteine peptide fold change” value falls from 0.149 to 0.147.

First: FABP5_Q01469_120+127_LVVECVMNNVTCTR (UniProt Q01469)
Second: EXOSC5_Q9NQT4_33_HFACEQNLLSRPDGSASFLQGDTSVLAGVYGPAEVK (UniProt Q9NQT4)
The “probe-labelled cysteine peptide fold change” value of the first is higher: 0.0117 for the first, -0.124 for the second.

Going from “ERLIN1_O75477_128_IHHELNQFCSAHTLQEVYIELFDQIDENLK (UniProt O75477)” to “EXOC4_Q96A65_957_EIICEQAAIK (UniProt Q96A65)”, the “probe-labelled cysteine peptide fold change” value falls from 0.0433 to -0.0542.
